Measurements reported in PubChem BioAssay AID504795 (Drosophila RNAi Screening Center, 2011).
Only reagents picked out of a larger screen are listed. 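Every listed dsRNA shows some phenotype; how reagents were selected for listing is not stated.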 A plus sign joins genes that one reagent is predicted to hit.

Assay: 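Fly genes whose loss alters neurite growth or neural cell form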 (primary screen)
Cells: primary Drosophila neurons and glia
Reagent: long dsRNA against Drosophila genes, 250 ng dsRNA per well
Time to read-out: one week
Detection: 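Descriptive morphology terms assigned by visual inspection of live automated images of GFP-marked cells, taken one week after adding 250 ng dsRNA per well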

Against Nnf1a [DRSC06394], the entry reads phenotype seen, replicate 1 = beaded; swollen axons.
Silencing of Hecw [DRSC18261] came out at: phenotype seen, replicate 1 = too many neurite branches.
For tHMG2 [DRSC16182], the values are phenotype seen, replicate 1 = sheet-like cell extensions.
Depletion of Arf4 [DRSC17195] resulted in: phenotype seen, replicate 1 = too many neurite branches.
With knock-down of DIP1 [DRSC20818], the screen gave phenotype seen, replicate 1 = fewer cells.
Silencing of Cog2 [DRSC16987] gave: phenotype seen, replicate 1 = abnormal cell clusters.
CG30457 [DRSC06661] gave phenotype seen, replicate 1 = beaded; swollen axons; phenotype seen, replicate 2 = beaded; swollen axons.
After knock-down of Taf1 [DRSC12607] the results were phenotype seen, replicate 1 = abnormal cell clusters.
Depletion of CG13436 [DRSC06396] gave: phenotype seen, replicate 1 = abnormal cell clusters.
With knock-down of scramb1 [DRSC10667], the screen gave phenotype seen, replicate 1 = cell fragments present.
For CG2691 [DRSC19866], the values are phenotype seen, replicate 1 = sheet-like cell extensions.
With knock-down of Brd7-9 [DRSC03017] the results were phenotype seen, replicate 1 = abnormal cell clusters.
For CG7272 [DRSC10795], the values are phenotype seen, replicate 1 = too many neurite branches.
Against CG1909 [DRSC17150], the values are phenotype seen, replicate 1 = too many neurite branches.
With knock-down of CG15536 [DRSC15072], the screen gave phenotype seen, replicate 1 = too many neurite branches.
Against CG12590 [DRSC12216], the values are phenotype seen, replicate 1 = abnormal cell clusters.
CG17107 [DRSC02575] gave phenotype seen, replicate 1 = too many neurite branches.
eIF4B [DRSC20983] showed phenotype seen, replicate 1 = too many neurite branches.
Depletion of CG7115 [DRSC02000] gave: phenotype seen, replicate 1 = too many neurite branches.
Against CG14777 [DRSC18563] the deposit lists phenotype seen, replicate 1 = too many neurite branches.
For Mob2 [DRSC09119], the entry reads phenotype seen, replicate 1 = abnormal cell clusters.
Against RpLP1 [DRSC22145], the values are phenotype seen, replicate 1 = axon bundles split apart; phenotype seen, replicate 2 = sheet-like cell extensions.
CG32199 [DRSC09990] scored phenotype seen, replicate 1 = reduced axon outgrowth.
Depletion of boca [DRSC06408] gave: phenotype seen, replicate 1 = abnormal cell clusters.
Arglu1 [DRSC02909] gave phenotype seen, replicate 1 = beaded; swollen axons.
For Cpr65Ax2 + Cpr65Ax1 [DRSC10344], the values are phenotype seen, replicate 1 = too many neurite branches.
Knock-down of srw [DRSC08201] came out at: phenotype seen, replicate 1 = too many neurite branches.
With knock-down of RpL15 [DRSC20963], the screen gave phenotype seen, replicate 1 = axon bundles split apart.

Entries above whose target name starts with T or t:
tHMG2 [DRSC16182] → phenotype seen, replicate 1 = sheet-like cell extensions
Taf1 [DRSC12607] → phenotype seen, replicate 1 = abnormal cell clusters

Next records:
With knock-down of t-cup [DRSC01254], the record shows phenotype seen, replicate 1 = axon bundles split apart.
After knock-down of sigmar [DRSC04449], the screen gave phenotype seen, replicate 1 = axon bundles split apart.
For Plekhm1 [DRSC04527], the values are phenotype seen, replicate 1 = axon bundles split apart.
CG14456 [DRSC11713] scored phenotype seen, replicate 1 = abnormal cell clusters.
tub [DRSC12389] gave phenotype seen, replicate 1 = axon bundles split apart.
ZAP3 [DRSC17853] showed phenotype seen, replicate 1 = too many neurite branches.
Depletion of CG42496 + Ppcdc [DRSC03886] resulted in: phenotype seen, replicate 1 = abnormal cell clusters.
eIF3l [DRSC10530] showed phenotype seen, replicate 1 = reduced axon outgrowth.
After knock-down of RpS3A [DRSC17168], the record shows phenotype seen, replicate 1 = too many neurite branches.
PRL-1 [DRSC03393] scored phenotype seen, replicate 1 = too many neurite branches.
CG31549 [DRSC21688] gave phenotype seen, replicate 1 = axon bundles split apart.
Against Abp1 [DRSC09693], the values are phenotype seen, replicate 1 = sheet-like cell extensions.
Dyb [DRSC07208] gave phenotype seen, replicate 1 = axon bundles split apart.
For Dyb [DRSC22862], the entry reads phenotype seen, replicate 1 = too many neurite branches.
Silencing of eIF4E4 [DRSC09701] came out at: phenotype seen, replicate 1 = fewer cells.
Against Polr2G [DRSC16068], the values are phenotype seen, replicate 1 = too many neurite branches.
dpr10 [DRSC10159] showed phenotype seen, replicate 1 = too many neurite branches; phenotype seen, replicate 2 = too many neurite branches.
dpr10 [DRSC10160] showed phenotype seen, replicate 1 = too many neurite branches.
Knock-down of Kebab [DRSC00827] gave: phenotype seen, replicate 1 = beaded; swollen axons.
